No constants are given. Whether binding was seen depends on the method and setting. In cells and extracts the contact can be indirect. Some results given as binding are weak or reduced against the parent protein; the word gives no strength.
How the values were obtained:
Elavl2-Myc = Elavl2-Myc (UniProt Q60899); assay: co-IP; exogenous Co-IP in lysate of C17.2 cells transfected with Vector or Elavl2-Myc; antibody (Myc antibody listed) on Protein G magnetic beads, overnight at 4 °C, read by immunoblotting
[1] = target: Elavl2 (mouse (endogenous in C17.2)) (UniProt Q60899); assay: co-IP; endogenous Co-IP in C17.2 lysate; ApoM or Elavl2 antibody on Protein G magnetic beads, overnight at 4 °C, IgG as negative control, read by immunoblotting

Amino acid sequences for entries named in this document (tags omitted).
UniProt Q60899: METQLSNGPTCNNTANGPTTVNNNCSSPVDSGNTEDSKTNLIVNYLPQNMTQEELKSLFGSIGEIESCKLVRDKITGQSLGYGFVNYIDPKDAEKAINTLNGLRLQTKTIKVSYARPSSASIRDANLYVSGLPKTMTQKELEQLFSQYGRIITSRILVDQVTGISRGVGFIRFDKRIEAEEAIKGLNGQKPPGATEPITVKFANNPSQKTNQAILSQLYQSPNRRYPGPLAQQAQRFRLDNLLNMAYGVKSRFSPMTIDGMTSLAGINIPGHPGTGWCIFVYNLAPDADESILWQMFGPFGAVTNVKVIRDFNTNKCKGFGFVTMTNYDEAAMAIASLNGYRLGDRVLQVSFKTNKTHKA
UniProt Q9Z1R3: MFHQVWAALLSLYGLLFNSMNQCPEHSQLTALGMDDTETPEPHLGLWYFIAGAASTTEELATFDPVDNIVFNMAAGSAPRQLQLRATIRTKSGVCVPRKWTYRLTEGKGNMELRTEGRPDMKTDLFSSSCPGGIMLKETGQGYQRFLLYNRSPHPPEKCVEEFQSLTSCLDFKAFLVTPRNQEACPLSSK

- binding (Elavl2-Myc): binds
- binding [1]: binds
Substance: apolipoprotein M (ApoM) (from UniProt Q9Z1R3 1-190)
